Data source: PubChem BioAssay AID1053208 (Peter MacCallum Cancer Centre, 2014)
The deposit covers about 17,000 reagents; below is a part drawn at random. 788 of them (4.7%) count as active. 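Calls rest on z-score classes alone; an extra cut-off of viability at most 70% of control was not applied to them.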 Unmarked entries are inactive. The numbers tell different reagents against one gene apart.

Aim: 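Genes whose silencing cuts survival of bone tumour cells only with doxorubicin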 (primary screen)
Cell system: mouse osteosarcoma cells, early-passage culture from an engineered mouse model of fibroblastic bone tumour
Reagents: siRNA pool against mouse genes, 40 nM
Time to read-out: about 120 h (48 h before drug, then 72 h with drug)
Treatment: doxorubicin 100 nM for 72 h, roughly 30-40% inhibitory dose
Measured: 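Viability read as ATP luminescence after 72 h of 100 nM doxorubicin or none, duplicate wells averaged, scaled to non-targeting siRNA, then expressed as robust z-scores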
Direction: viability z-score with doxorubicin and doxorubicin viability vs non-targeting: higher = more viable cells under doxorubicin; viability z-score without drug: higher = more viable cells with knock-down alone; z-score of drug to no-drug ratio: higher = less drug sensitisation by knock-down
Hit rule: 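a pool counts as active when its viability z-score with doxorubicin is -2 or below and its z-score without drug lies between -2 and 2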

no.	Gene	reagent	combined z-score class	viability z-score with doxorubicin	viability z-score without drug	z-score of drug to no-drug ratio	doxorubicin viability vs non-targeting
1	Dpp4 (dipeptidylpeptidase 4)	1	no change with or without drug	-0.67	-1.85	0.79	0.88
2	Rabl3 (RAB, member RAS oncogene family-like 3)	1	no change with or without drug	0.67	-1.35	1.91	1
3	Arhgef19 (Rho guanine nucleotide exchange factor 19)	1	no change with or without drug	1.35	0.34	1.24	1.06
4	Gm5089 (predicted gene 5089)	1	no change with or without drug	0.67	-0.84	1.46	1
5	Glb1l2 (galactosidase, beta 1-like 2)	1	no change with or without drug	-0.22	0.51	-0.45	0.92
6	Lratd1 (LRAT domain containing 1)	1	no change with or without drug	-1.24	0.84	-1.69	0.83
7	Fkbp8 (FK506 binding protein 8)	1	no change with or without drug	-0.11	-0.84	0.56	0.93
8	Bpifb3 (BPI fold containing family B, member 3)	1	no change with or without drug	-0.79	-0.34	-0.45	0.87
9	N4bp2l2 (NEDD4 binding protein 2-like 2)	1	no change with or without drug	1.46	0.17	1.46	1.07
10	Prss30 (serine protease 30)	1	no change with or without drug	1.57	0.51	1.35	1.08
11	Abca6 (ATP-binding cassette, sub-family A member 6)	1	no change with or without drug	1.12	0.17	1.12	1.04
12	Or52i2 (olfactory receptor family 52 subfamily J member 2)	1	no change with or without drug	-0.22	0	-0.11	0.92
13	Xkr6 (XK related 6)	1	no change with or without drug	0.67	-0.17	0.9	1
14	Capza1 (capping actin protein of muscle Z-line subunit alpha 1)	1	no change with or without drug	0.22	0	0.34	0.96
15	Mpst (mercaptopyruvate sulfurtransferase)	1	no change with or without drug	1.12	-0.17	1.46	1.04
16	Tjp3 (tight junction protein 3)	1	no change with or without drug	0	0.51	-0.22	0.94
17	Zfp385b (zinc finger protein 385B)	1	high cell count without drug only	1.12	2.7	-0.45	1.04
18	Fyttd1 (forty-two-three domain containing 1)	1	no change with or without drug	0.56	1.18	-0.11	0.99
19	Mtx2 (metaxin 2)	1	no change with or without drug	-1.46	-1.18	-0.67	0.81
20	Lypd3 (Ly6/Plaur domain containing 3)	1	low cell count with doxorubicin only (active)	-2.02	-1.69	-1.01	0.76
21	Paqr3 (progestin and adipoQ receptor family member III)	1	no change with or without drug	0.22	0.17	0.22	0.96
22	Trmt2b (TRM2 tRNA methyltransferase 2B)	1	no change with or without drug	0.34	0.17	0.34	0.97
23	Pigq (phosphatidylinositol glycan anchor biosynthesis, class Q)	1	no change with or without drug	-0.11	0.67	-0.45	0.93
24	Cdcp2 (CUB domain containing protein 2)	1	no change with or without drug	0.56	1.69	-0.45	0.99
25	Slc17a7	1	no change with or without drug	1.35	1.18	0.67	1.06
26	Urgcp (upregulator of cell proliferation)	1	no change with or without drug	0	0.67	-0.34	0.94
27	Brix1 (BRX1, biogenesis of ribosomes)	1	low cell count without drug only	-0.9	-3.88	2.36	0.86
28	Rhox5 (reproductive homeobox 5)	1	low cell count with and without drug	-2.7	-2.02	-1.57	0.7
29	Odf1 (outer dense fiber of sperm tails 1)	1	no change with or without drug	0.79	0.51	0.56	1.01
30	Cox4i2 (cytochrome c oxidase subunit 4I2)	1	no change with or without drug	-0.11	-0.51	0.34	0.93
31	Hsd17b11 (hydroxysteroid (17-beta) dehydrogenase 11)	1	no change with or without drug	0.56	-0.84	1.35	0.99
32	Tshz3 (teashirt zinc finger family member 3)	1	no change with or without drug	0	0.51	-0.22	0.94
33	Rad51 (RAD51 recombinase)	1	no change with or without drug	-0.67	0.84	-1.12	0.88
34	Sike1 (suppressor of IKBKE 1)	1	no change with or without drug	-0.67	0	-0.56	0.88
35	Sike1 (suppressor of IKBKE 1)	2	high cell count with doxorubicin only	2.02	1.52	1.12	1.12
36	Iftap (intraflagellar transport associated protein)	1	no change with or without drug	-0.22	-1.18	0.79	0.92
37	Hnrnpdl (heterogeneous nuclear ribonucleoprotein D-like)	1	no change with or without drug	0.22	-0.34	0.56	0.96
38	Blnk (B cell linker)	1	no change with or without drug	0.9	0.84	0.45	1.02
39	Zfp940 (zinc finger protein 940)	1	no change with or without drug	0.11	-0.17	0.34	0.95
40	Csnk2a1 (casein kinase 2, alpha 1 polypeptide)	1	no change with or without drug	-0.22	1.01	-0.79	0.92
41	Rad51b (RAD51 paralog B)	1	no change with or without drug	1.57	-0.51	2.14	1.08
42	Eif5a2 (eukaryotic translation initiation factor 5A2)	1	no change with or without drug	-0.9	0.51	-1.12	0.86
43	Cers6 (ceramide synthase 6)	1	no change with or without drug	0.67	1.85	-0.45	1
44	St7l (suppression of tumorigenicity 7-like)	1	no change with or without drug	-0.45	-0.17	-0.22	0.9
45	Bend3 (BEN domain containing 3)	1	no change with or without drug	-0.45	-0.34	-0.11	0.9
46	Ubald2 (UBA-like domain containing 2)	1	no change with or without drug	1.46	1.85	0.34	1.07
47	Atp5pd (ATP synthase peripheral stalk subunit d)	1	no change with or without drug	-0.67	0.17	-0.67	0.88
48	Eno3 (enolase 3, beta muscle)	1	no change with or without drug	-0.45	-0.84	0.22	0.9
49	Fa2h (fatty acid 2-hydroxylase)	1	no change with or without drug	-0.11	0.17	-0.11	0.93
50	Fastkd2 (FAST kinase domains 2)	1	no change with or without drug	0.67	-0.17	0.9	1

Records above called active, once more:
Gene	reagent	combined z-score class	viability z-score with doxorubicin	viability z-score without drug	z-score of drug to no-drug ratio	doxorubicin viability vs non-targeting
Lypd3 (Ly6/Plaur domain containing 3)	1	low cell count with doxorubicin only (active)	-2.02	-1.69	-1.01	0.76
